The record followed here is PubChem BioAssay AID2685 (National Center for Advancing Translational Sciences (NCATS), 2010).

The assay is described as follows: qHTS Assay for Lipid Storage Modulators in Drosophila S3 Cells.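 For cell number change: cells counted by Cell Tracker Red CMTPX staining in the red channel.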 Particulars: BODIPY lipid droplet fluorescence, 18-24 h; for cell number change: measured here: cell count max response, cells fed with added oleic acid. An outline of the steps: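 Laser-scanning cytometry quantifies lipid droplet accumulation (500–530 nm total intensity; droplet/cell object ratio) in oleic acid-fed (400 uM added) Drosophila S3 cells treated with a concentration series. 20 uM Triacsin C defined 100% inhibition.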
For orientation: In qHTS, concentration-response curves come from the screen itself.

[1] abbreviates: measured here: lipid fluorescence (Fed channel) AC50, cells fed with added oleic acid.
Setting [2] is: measured here: cell number channel AC50, cells fed with added oleic acid.

The list shows a part of the results. Further columns of the screen follow, without active or inactive calls. Compounds called inactive in the main read-out are mostly missing here. The note in brackets gives the kind of curve behind each potency; many fits are weak.

By AC50 is commonly meant the midpoint of the concentration-response curve, whichever way the signal moves. The low end stands for greater potency, the high end for weaker potency. For the compound `COc1ccc(OC)c(C2=NNC(=NCc3ccc4c(c3)OCO4)SC2)c1`, the cell number change stood at 3.3%. Also, the AC50 under setting [1] was 11.6 µM [rising, partial curve, poor fit].

On to `CC(=O)Nc1ccc(OCC(O)Cn2c(CO)nc3ccccc32)cc1` (configuration not stated), for which the cell number change is -33.1%. Further, the AC50 under setting [2] was 18.4 µM [falling, single point].

As to `O=C1NC[C@H](Cc2ccccc2)N(CC2CCCCC2)C1=O`, the cell number change was -6.18%. Besides, under setting [1], the AC50 is 0.00651 µM [falling, full curve, poor fit].

As for `COc1cc(C(=O)Nc2ccc3nc(N4CCN(C)CC4)cc(C)c3c2)cc(OC)c1OC`, the cell number change was 46.1%. For the same compound, under setting [2], the AC50 is 4.11 µM [rising, full curve, poor fit]. Under setting [1], the AC50 is 5.8 µM [rising, full curve].

`Cc1cc(=O)[nH]c(SCCOc2ccc(OC(C)C)cc2)n1`: the cell number change is -42.9%. Moreover, the AC50 under setting [2] was 29.1 µM [falling, single point].

`CCOc1ccccc1NC(=O)C(=O)/C=C(\O)c1cc(OC)ccc1OC`: the cell number change worked out at 42.2%. Moreover, the AC50 under setting [2] was 29.1 µM [rising, single point].

With `Cc1ccc(-c2nc(CN(C)Cc3ccc4nccnc4c3)c(C)o2)s1`, the cell number change was -1.95%. Further, the AC50 under setting [1] was 6.51 µM [falling, single point].

As for `CC(CNc1ccc([N+](=O)[O-])c2cccnc12)Nc1c([N+](=O)[O-])cc(C(F)(F)F)cc1[N+](=O)[O-]` (configuration not stated), the cell number change was -84.1%. In addition, the AC50 under setting [2] was 20.6 µM [falling, single point]. The AC50 under setting [1] is 23.1 µM [falling, partial curve, poor fit].

Turning to `O=C(NC(=S)N1CCN(c2ccccn2)CC1)c1ccccc1`, the cell number change was 22.5%. In addition, the AC50 under setting [1] is 14.6 µM [rising, partial curve].

For `O=C(CN1C(=O)c2ccccc2C1=O)Nc1ccccc1C(=O)NC1CCCCC1`, the cell number change is 44.2%. For the same compound, the AC50 under setting [2] is 29.1 µM [rising, single point]. For the same compound, under setting [1], the AC50 is 0.00411 µM [rising, full curve, poor fit].

Consider `COc1ccc(NC(=O)COC(=O)/C=C/c2ccc(OC)c(S(=O)(=O)N3CCOCC3)c2)cc1`, for which the cell number change was -15%. Under setting [1], the AC50 was 16.4 µM [rising, single point].

Regarding `CCCOc1ccc(C(=O)OCC(=O)c2c(N)n(C)c(=O)n(C)c2=O)cc1OC`, the cell number change worked out at 1.17%. Besides, the AC50 under setting [2] is 0.146 µM [falling, full curve, poor fit].

As for `CC(C(c1cccs1)c1c(N)n(C)c(=O)n(C)c1=O)[N+](=O)[O-]` (configuration not stated), the cell number change came to 35.1%. Also, the AC50 under setting [2] was 29.1 µM [rising, single point].

Consider `COc1ccc(C(=O)Nc2ccc(C)cn2)cc1S(=O)(=O)N1CCCc2ccccc21`, for which the cell number change was -30.1%. Under setting [2], the AC50 was 0.82 µM [falling, full curve, poor fit].

`O=C(c1ccccc1)c1c[nH]c(C(=O)C(Cl)(Cl)Cl)c1`: the cell number change is -31.4%.

On to `COc1ccc(Br)c(C(=O)NC(C)(C)CO)c1`, for which the cell number change stood at 21.8%. The AC50 under setting [1] is 0.0291 µM [rising, full curve, poor fit].

Regarding `O=C(Nc1cccc(C(=O)NC2CC2)c1)c1ccc(F)c(S(=O)(=O)N2CCOCC2)c1`, the cell number change is -10.9%.

Take `CCOC(=O)c1[nH]c2ccc(OCC)cc2c1NC(=O)CN1CCN(c2ccccc2)CC1`: the cell number change was 8.69%. Further, the AC50 under setting [1] was 0.0326 µM [rising, full curve, poor fit].

With `COc1cccc(Cl)c1NC(=O)N1CCN(c2cc(C)nc3ccccc23)CC1`, the cell number change stood at 30.4%. In addition, under setting [2], the AC50 was 1.3 µM [rising, partial curve, poor fit].

As to `S=C(Nc1ccccc1Cl)N1CCCCCC1`, the cell number change is -43.1%. The AC50 under setting [2] was 32.6 µM [falling, single point]. For the same compound, the AC50 under setting [1] was 29.1 µM [falling, single point].

With `Cn1c(=O)c(=O)n(C)c2cc(S(=O)(=O)N3CCOCC3)ccc21`, the cell number change is 45.4%. For the same compound, under setting [2], the AC50 was 29.1 µM [rising, single point]. In addition, the AC50 under setting [1] was 29.1 µM [rising, single point].

Take `CCC1(c2ccccc2)NC(=O)N(CC(=O)N(C)Cc2c(F)cccc2Cl)C1=O` (configuration not stated): the cell number change was 16.9%.

Turning to `O=C(Nc1cccc(Cl)c1N1CCCC1)c1ccc(Br)o1`, the cell number change was -16%. In addition, under setting [1], the AC50 is 0.13 µM [rising, full curve, poor fit].

For the compound `CC(=O)Nc1ccc(Nc2cc(N(C)C)c3nonc3c2[N+](=O)[O-])cc1`, the cell number change is 15.9%. Further, the AC50 under setting [1] was 0.13 µM [rising, full curve, poor fit].

In the case of `O=C(COc1coc(CN2CCc3ccccc3C2)cc1=O)Nc1ccc(F)cc1F`, the cell number change worked out at 13.1%. For the same compound, the AC50 under setting [2] is 0.00461 µM [falling, full curve, poor fit].

In the case of `CC(=O)Nc1ccc(NC(=O)COC(=O)c2ccco2)cc1`, the cell number change was 8.89%. For the same compound, the AC50 under setting [1] is 0.082 µM [falling, full curve, poor fit].

Take `O=C(NCCCN1CCCC1=O)C1CCN(S(=O)(=O)c2ccccc2)CC1`: the cell number change is -3.03%. The AC50 under setting [1] was 0.206 µM [falling, full curve].

Turning to `O=C(COC(=O)C1COc2ccccc2O1)NC(=O)NC1CCCCC1` (configuration not stated), the cell number change is -16.2%. For the same compound, the AC50 under setting [2] is 6.51 µM [falling, single point]. Moreover, the half-maximal activity concentration (AC50) under setting [1] was 29.1 µM [falling, single point].

Consider `COCCOC(=O)C1=C(C)NC(C)=C(C(=O)OCCOC)C1/C=C/c1ccccc1OC`, for which the cell number change was determined as 17.5%. Further, the AC50 under setting [1] was 1.64 µM [rising, partial curve, poor fit].

On to `CC(C)N1CN=C(Nc2nc3ccccc3o2)NC1`, for which the cell number change was -27.9%. Further, the AC50 under setting [1] was 29.1 µM [falling, single point].

As for `Cc1ccc(NC(=O)COC(=O)Cc2cccs2)c(Br)c1`, the cell number change stood at 10.7%. Also, the AC50 under setting [1] was 31.6 µM [rising, single point].

As for `Cc1ccc(C2/C(=C(/O)c3ccc4c(c3)CC(C)O4)C(=O)C(=O)N2CCCn2ccnc2)cc1` (configuration not stated), the cell number change is -17.7%. Besides, the AC50 under setting [1] was 0.13 µM [falling, full curve, poor fit].

Take `O=S(=O)(NCc1cccnc1)c1ccc2ccccc2c1`: the cell number change came out at 0.952%.

Consider `Cc1ccc(C(=O)NCC(=O)Nc2ncccc2C)s1`, for which the cell number change was determined as 22%. Further, under setting [2], the AC50 is 0.58 µM [rising, full curve, poor fit].

Turning to `COc1cccc(C(=O)OCC(=O)c2c[nH]c3ccccc23)c1O`, the AC50 is 5.8 µM [falling, single point] under setting [2] and 4.11 µM [falling, single point] under setting [1].

Regarding `COc1ccc(C(=O)c2nccc3ccccc23)cc1`, the cell number change was -12.7%.

As to `CCC(C)C(=O)Nc1nc(C)c(-c2csc(Nc3ccc(Cl)cc3)n2)s1` (configuration not stated), the cell number change is -60.3%. For the same compound, under setting [2], the AC50 was 18.4 µM [falling, partial curve]. Moreover, the AC50 under setting [1] is 18.4 µM [falling, partial curve].

As to `CCc1cc(C(=O)OCC(=O)N2CCC(c3ccccc3)=N2)sc1C`, the cell number change is -22.8%.

For `O=C(CC(c1ccccc1)(c1ccccc1)c1ccccc1)N[C@@H](Cc1ccc(O)cc1)C(=O)O`, the cell number change was -21.9%. In addition, the AC50 under setting [1] is 32.6 µM [falling, single point].

With `COc1nc(C)ccc1-c1noc(-c2cccnc2)n1`, the cell number change is -9.49%.

As for `COC(=O)COc1nc(C)c2c(c1C#N)CC(C)(C)OC2`, the cell number change worked out at 25.5%. The AC50 under setting [1] is 6.51 µM [falling, single point].

On to `O=C1CC(c2ccccc2)=Nc2ccccc2N1Cc1ccccc1`, for which the AC50 under setting [1] is 0.58 µM [rising, single point].

Consider `Cc1ccccc1C(=O)Nc1nnc(S(=O)(=O)N2CCCCC2)s1`, for which the cell number change was 16.1%. For the same compound, under setting [1], the AC50 was 6.51 µM [rising, single point].

Take `CC(C)(C)NC(=O)c1cnn2c1NC(c1ccc(F)cc1)CC2C(F)(F)F` (configuration not stated): the cell number change was found to be 1.02%. Further, the AC50 under setting [1] was 1.84 µM [rising, single point].

For `CC(=O)c1cnn(-c2cc(Oc3ccccc3C)ncn2)c1C`, the cell number change stood at 35.2%. In addition, the AC50 under setting [2] was 29.1 µM [rising, single point].

For `O=C(CCN1C(=O)/C(=C\c2cccs2)SC1=S)Nc1ccccn1`, the AC50 under setting [1] was 6.51 µM [rising, single point].

In the case of `CCC(C(=O)NCCCc1ccccc1)n1nc(C)c2c(C)n(-c3ccccc3)nc2c1=O` (configuration not stated), the cell number change was determined as 19.2%. Also, under setting [1], the AC50 was 1.84 µM [rising, full curve].

Take `COc1ccc(C2/C(=C(/O)c3ccccc3)C(=O)C(=O)N2C)cc1OC` (configuration not stated): the cell number change is -11.9%. In addition, the AC50 under setting [1] was 6.51 µM [falling, single point].

For `CN1CCN(C(=O)CSc2nc(-c3cccs3)ccc2C#N)CC1`, the cell number change was -11.4%. The AC50 under setting [2] was 0.651 µM [falling, full curve, poor fit]. Moreover, under setting [1], the AC50 was 6.51 µM [rising, single point].

Take `O=C(CN(c1ccc(F)cc1)S(=O)(=O)c1ccc2c(c1)OCCO2)NCc1cccnc1`: the cell number change worked out at 32.2%. For the same compound, the AC50 under setting [2] is 32.6 µM [rising, single point]. Also, under setting [1], the AC50 was 14.6 µM [rising, partial curve].

On to `CCOC(=O)c1ccc(NC(=O)CCS(=O)(=O)c2cccc3nonc23)cc1`, for which the cell number change was found to be 7.5%.

Take `Cc1ccc(C(OCC(O)CNCc2ccc(F)cc2)c2ccccc2)cc1` (configuration not stated): the cell number change was -69.9%. In addition, the AC50 under setting [2] is 29.1 µM [falling, single point].

As to `O=C(CN1CCC(c2nc3ccccc3[nH]2)CC1)NCc1ccc2c(c1)OCO2`, the cell number change is 40.4%. Moreover, under setting [2], the AC50 is 2.06 µM [rising, full curve]. Besides, the AC50 under setting [1] is 0.00731 µM [rising, full curve, poor fit].

As to `[N-]=[N+]=NC[C@H](Cc1ccccc1)N1CCN(Cc2ccccc2)CCC1=O`, the cell number change worked out at 18.1%. The AC50 under setting [1] was 4.11 µM [falling, single point].

As for `N#CCc1nc(CSc2nc3ccccc3o2)cs1`, the cell number change was -18%.

As to `COc1ccc(NC(=O)CCN2C(=O)c3cccc([N+](=O)[O-])c3C2=O)cc1`, under setting [1], the AC50 is 29.1 µM [rising, single point].

`COc1ccc(-c2ccc(/C=C(\NC(=O)c3ccccc3)C(=O)N3CCOCC3)o2)cc1`: the cell number change is -20.7%. Besides, the AC50 under setting [1] is 20.6 µM [falling, single point].

`COc1ccc([N+](=O)[O-])cc1NC(=O)CSc1ccc2ccccc2c1`: the cell number change is -17.9%. In addition, under setting [1], the AC50 was 4.61 µM [falling, single point].

In the case of `N#Cc1c(-c2ccncc2)c2c([nH]c1=S)CCCC2`, the cell number change was -33.4%. For the same compound, the AC50 under setting [2] was 32.6 µM [falling, single point]. For the same compound, under setting [1], the AC50 is 32.6 µM [falling, single point].
